Measured values reported in patent publication US20100292169A1, “METHODS AND COMPOSITIONS FOR REGULATING HDAC6 ACTIVITY” (Duke University, priority 2005, published 2010).
Results are given in words; binding and its absence hold for the method and conditions named. Some results given as binding are weak or reduced against the parent protein; the word gives no strength.

Amino acid sequences for entries named in this document (tags omitted). A change or cut given only in a name is not applied to a line headed by its entry.
UniProt P06537: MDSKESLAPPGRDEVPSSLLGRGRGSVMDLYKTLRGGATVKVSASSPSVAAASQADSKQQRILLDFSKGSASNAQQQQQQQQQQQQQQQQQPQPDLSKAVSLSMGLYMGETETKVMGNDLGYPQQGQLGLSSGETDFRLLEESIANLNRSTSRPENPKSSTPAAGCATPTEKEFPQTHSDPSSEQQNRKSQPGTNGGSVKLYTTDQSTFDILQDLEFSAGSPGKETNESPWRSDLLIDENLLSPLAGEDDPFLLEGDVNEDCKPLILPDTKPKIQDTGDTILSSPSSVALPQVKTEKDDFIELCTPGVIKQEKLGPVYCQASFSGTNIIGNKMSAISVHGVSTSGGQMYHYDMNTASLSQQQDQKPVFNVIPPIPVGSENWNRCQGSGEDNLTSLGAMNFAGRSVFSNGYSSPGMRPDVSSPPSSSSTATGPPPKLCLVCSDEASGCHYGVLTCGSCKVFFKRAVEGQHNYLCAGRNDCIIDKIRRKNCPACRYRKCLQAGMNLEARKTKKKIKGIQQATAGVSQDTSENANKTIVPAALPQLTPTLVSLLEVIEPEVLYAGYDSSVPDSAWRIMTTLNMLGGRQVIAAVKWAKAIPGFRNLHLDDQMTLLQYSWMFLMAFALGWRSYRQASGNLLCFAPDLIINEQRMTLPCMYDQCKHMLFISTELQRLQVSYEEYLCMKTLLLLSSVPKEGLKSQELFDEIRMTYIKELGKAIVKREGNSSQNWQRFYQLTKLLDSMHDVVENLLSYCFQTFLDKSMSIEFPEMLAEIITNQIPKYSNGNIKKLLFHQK
UniProt P30947: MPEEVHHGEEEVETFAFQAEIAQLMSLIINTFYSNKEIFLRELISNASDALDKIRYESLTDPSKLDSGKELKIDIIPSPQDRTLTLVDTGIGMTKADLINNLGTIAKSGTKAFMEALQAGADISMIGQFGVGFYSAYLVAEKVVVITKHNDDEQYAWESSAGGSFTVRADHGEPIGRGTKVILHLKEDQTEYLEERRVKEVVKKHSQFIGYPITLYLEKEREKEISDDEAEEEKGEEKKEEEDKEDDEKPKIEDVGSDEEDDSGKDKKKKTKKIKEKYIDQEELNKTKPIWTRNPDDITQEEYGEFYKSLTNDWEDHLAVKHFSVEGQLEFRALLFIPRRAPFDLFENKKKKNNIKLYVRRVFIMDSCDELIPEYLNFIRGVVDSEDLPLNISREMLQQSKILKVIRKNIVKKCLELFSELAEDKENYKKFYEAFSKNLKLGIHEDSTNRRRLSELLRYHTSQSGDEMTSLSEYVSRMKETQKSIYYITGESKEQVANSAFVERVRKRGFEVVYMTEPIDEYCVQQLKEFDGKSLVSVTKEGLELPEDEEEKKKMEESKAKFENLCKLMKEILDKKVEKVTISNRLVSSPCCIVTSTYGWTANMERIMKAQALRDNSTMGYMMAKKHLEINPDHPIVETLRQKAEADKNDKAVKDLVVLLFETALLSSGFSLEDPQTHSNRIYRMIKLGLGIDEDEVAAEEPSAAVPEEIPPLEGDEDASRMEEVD

Key:
[1] = biological target: mouse glucocorticoid receptor (mGR), full length (mouse) (UniProt P06537); test: mGR immune pellets incubated with rabbit reticulocyte lysate; GR-associated hsp90 and steroid binding
[2] = biological target: mouse glucocorticoid receptor (mGR), full length (mouse) (UniProt P06537); test: purified rabbit hsp90 added to HDAC6 knockdown cytosol; GR.hsp90 heterocomplex assembly on mGR immune pellets

- binding [1]: binds
- binding [2]: binds
Substance: rabbit hsp90 (of rabbit reticulocyte lysate, or purified) (from UniProt P30947 2-726)
